Results taken from PubChem BioAssay AID188 (DTP/NCI, 2004).
Shown are survivors of the treated group in tumour-free mice. Survivors were counted at the toxicity check, usually on the fifth day, unless a day is given; later deaths do not show. Schedule codes are those of the source, read here as Q, the interval in days (D) or hours (H), X, the number of doses.

System: CD2F1 mice, nontumored, toxicity/survival
Assay: NCI In Vivo Anticancer Drug Screen. Data for tumor model Nontumored Animals (Toxicity Test) in CD2F1 (CDF1) mice
Settings: schedule: Q04DX003 (ip), vehicle: saline with Tween-80

Measured: survivor count

CCOC(=O)C(CC(C)C)NC(=O)C(Cc1ccc(N(CCCl)CCCl)cc1)NC(C)=O (stereo not drawn)
8 of 8: dose: 8.0 mg/kg/injection | dose: 8.4 mg/kg/injection | dose: 12.6 mg/kg/injection | dose: 16.0 mg/kg/injection | dose: 18.9 mg/kg/injection | dose: 28.4 mg/kg/injection | dose: 32.0 mg/kg/injection | dose: 42.6 mg/kg/injection | dose: 64.0 mg/kg/injection | dose: 96.0 mg/kg/injection | dose: 128.0 mg/kg/injection | dose: 144.0 mg/kg/injection | dose: 256.0 mg/kg/injection
